# Publication PMC6739357
# Protein sequences, listed by entry. Tags and fused reporters are not part of them. Residues count along the entry.
# UniProt Q704E8, residues 23-752: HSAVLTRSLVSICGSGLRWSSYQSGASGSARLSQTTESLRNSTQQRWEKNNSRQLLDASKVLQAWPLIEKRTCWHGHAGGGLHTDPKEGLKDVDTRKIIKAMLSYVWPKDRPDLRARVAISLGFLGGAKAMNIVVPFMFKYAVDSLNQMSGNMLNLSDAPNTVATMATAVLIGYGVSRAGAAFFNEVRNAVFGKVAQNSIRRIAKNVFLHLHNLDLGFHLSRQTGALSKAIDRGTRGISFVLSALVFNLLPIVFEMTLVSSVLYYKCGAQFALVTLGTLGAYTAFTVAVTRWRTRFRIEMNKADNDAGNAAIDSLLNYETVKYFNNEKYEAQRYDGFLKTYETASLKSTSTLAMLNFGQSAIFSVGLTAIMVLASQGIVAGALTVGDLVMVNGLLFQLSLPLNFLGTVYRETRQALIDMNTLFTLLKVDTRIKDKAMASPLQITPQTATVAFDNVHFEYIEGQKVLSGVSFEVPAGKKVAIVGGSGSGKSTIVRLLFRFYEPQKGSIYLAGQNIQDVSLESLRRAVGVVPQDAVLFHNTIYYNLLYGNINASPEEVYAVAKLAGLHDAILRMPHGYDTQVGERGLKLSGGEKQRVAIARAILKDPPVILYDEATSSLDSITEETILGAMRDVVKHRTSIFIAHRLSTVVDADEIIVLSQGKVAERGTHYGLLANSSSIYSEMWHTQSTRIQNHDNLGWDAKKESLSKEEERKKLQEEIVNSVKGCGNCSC
# UniProt P15999, residues 44-553: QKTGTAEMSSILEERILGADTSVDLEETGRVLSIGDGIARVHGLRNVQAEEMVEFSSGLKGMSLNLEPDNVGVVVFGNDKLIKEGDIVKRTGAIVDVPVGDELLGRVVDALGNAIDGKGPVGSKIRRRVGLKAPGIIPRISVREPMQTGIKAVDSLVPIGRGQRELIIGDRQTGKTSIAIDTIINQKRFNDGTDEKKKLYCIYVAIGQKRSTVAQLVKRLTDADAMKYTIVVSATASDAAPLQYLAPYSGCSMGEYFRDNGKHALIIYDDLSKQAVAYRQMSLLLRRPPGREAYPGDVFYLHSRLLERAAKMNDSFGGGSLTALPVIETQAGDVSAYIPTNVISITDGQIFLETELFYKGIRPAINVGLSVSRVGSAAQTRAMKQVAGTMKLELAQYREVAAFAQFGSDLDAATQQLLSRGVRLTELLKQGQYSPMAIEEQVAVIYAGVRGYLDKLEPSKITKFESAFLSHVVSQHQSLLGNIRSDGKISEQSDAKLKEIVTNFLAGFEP
# No constants are given. Whether binding was seen depends on the method and setting. Binding seen in cells or lysates may run through a third protein. Some binding calls cover weakened binding; strength is not graded here.
# Biological target: ABCB7 (mitochondrial ATP-binding cassette transporter ABCB7) (rat (endogenous in H9C2)) (UniProt Q704E8)
# Experiment: co-IP; endogenous proteins; H9C2 cell lysate (~1 mg protein) in IP buffer (20 mM Tris-HCl, 1 mM EDTA, 150 mM NaCl, 0.5% NP-40); immunoprecipitated with ABCB7 or COXIV antibody (2-3 ug) and protein A/G agarose beads at 4 °C overnight; Western blot
substance,measurement,value
ATP5a (mitochondrial complex V) (from UniProt P15999 44-553),binding,binds
